Test results as given in paper PMC6896172, “Successful Targeting of the Warburg Effect in Prostate Cancer by Glucose-Conjugated 1,4-Naphthoquinones” (Cancers, 2019).
This continues a long series; more values of the same kind are listed elsewhere.

Tested on: 22Rv1 cells
Assay: Global proteome analysis (LC-MS/MS, DIA) of differentially expressed proteins
Assay type: cell-based, human
Description: 22Rv1 cells were seeded in T75 culture bottles (4 × 10^6 cells/bottle in 20 mL/bottle), treated for 48 h with the 5 µM of compound 11 or vehicle (DMSO), harvested by scratching, washed twice with ice-cold PBS and flash-frozen. Cells were lysed and sonicated. The protein extracts were then heat-denaturated, reduced, alkylated and digested by trypsin. Peptides were chromatographically separated using full recovery autosampler vials and a nano-UPLC system (Acquity, Waters Corporation, Milford, MS, USA), coupled via electrospray ionization (ESI) to a tandem mass spectrometer equipped with a quadrupole and an orbitrap (QExactive, Thermo Fisher Scientific, Bremen, Germany), using MS/MS mode in data dependent acquisition (DDA) and data independent acquisition (DIA). The peptides, analyzed with DDA-LC-MS/MS, were identified with the search engine Sequest, integrated in the Proteome Discoverer software version 2.0 (Thermo Fischer Scientific) using the human Uniprot protein database (EMBL; Hinxton Cambridge, UK, release December 2018). […] For the details of sample preparation and proceeding, data acquisition and analysis see the Supplementary information. […]
serum (FBS, Invitrogen) and 1% penicillin/streptomycin (Invitrogen)). […]
Cell lines were lysed in 100 mM triethylammonium bicarbonate and 1% w/v sodium deoxycholate buffer followed by probe sonication to destroy polynucleotides and heat induce protein denaturing at 99 °C for 5 min. Protein concentrations were estimated with a bicinchonic acid (BCA) protein assay (Thermo Fisher Scientific, Bremen, Germany). 20 µg of protein were reduced in presence of 10 mM dithiotreithol (Sigma Aldrich) for 30 min at 60 °C followed by cysteine alkylation with 20 mM iodo acetamide (Sigma Aldrich) for 30 min at 37 °C in the dark and enzymatic degradation with sequencing grade trypsin (Promega) over night at 37 °C. Digestion was quenched with 1% formic acid (FA), precipitated sodium deoxycholate removed by centrifugation for 5 min at 14,000 g and the supernatant was dried in a vacuum centrifuge.
LC-MS/MS in Data Dependent and Data Independent Mode
Samples were resuspended in 0.1% FA and transferred into a full recovery autosampler vial (Waters). Chromatographic separation was achieved on a nano -UPLC system (Acquity, Waters Corporation, Milford, MS, USA) with a two-buffer-system (buffer A: 0.1% FA in water, buffer B:
0.1% FA in Acetonitrile (ACN), both at pH = 3). Attached to the UPLC was a reversed -phase peptide trapping column (Symmetry C18, 180 µm × 20 mm, 100 Å pore size, 5 µm particle size) for desalting, followed by a reversed-phase capillary separation of the tryptic peptides (BEH C18; 75 µm × 200 mm, 130 Å pore size, 1.7 µm particle size), using a 60 min gradient with increasing ACN concentration from 2–30% ACN. The eluting peptides were analyzed on a quadrupole-orbitrap mass spectrometer (QExactive, Thermo Fisher Scientific, Bremen, Germany) in data dependent acquisition (DDA) and data independent acquisition (DIA) for quantification.
In DDA mode, one replicate of each cell line was randomly chosen and 1 µg per sample was used per LC-MS/MS run to build a reference spectral library used for data extraction of samples acquired in DIA mode. For DDA, the 12 most intense ions per precursor scan (1 × 10 6 ions, 70,000 Resolution, 120 ms fill time) were analyzed by MS/MS (HCD at 25 normalized collision energy, 1 × 105 ions, 17,500 Resolution, 50 ms fill time) in a range of 400–1300 m/z. A dynamic precursor exclusion of 20 s was used. For DIA, 1 µg of each sample was analyzed using a 30 sequential 20 Da fixed window method covering the mass range from 400 –1000 m/z. Per cycle, 2 precursor scans (1 × […]
28 normalized collision energy, 1 × 106 ions, 17,500 Resolution, 50 ms fill time) were performed.
After the first precursor scan, 15 MS/MS scans were performed covering the precursor mass range from 400–700 m/z followed by the second precursor scan and another 15 MS/MS scans ranging from […]
LC-MS/MS Data Processing and Analysis […]

`CC1(C)OC2OC(C(O)COC3=CC(=O)c4cccc(O)c4C3=O)C(O)C2O1` (centres unmarked) [Compound 11] was tested, and the “Fold change (treated / control)” value (2AAA_HUMAN P30153) was 1.251, the “Fold change (treated / control)” value (6PGL_HUMAN O95336) was 1.328 and the “Fold change (treated / control)” value (1433E_HUMAN P62258) was 1.343. For the same compound, the “Fold change (treated / control)” value (1433Z_HUMAN P63104) was 1.228, the “Fold change (treated / control)” value (AATC_HUMAN P17174) was 1.532 and the “Fold change (treated / control)” value (AATM_HUMAN P00505) was 1.121. The “Fold change (treated / control)” value (ABCE1_HUMAN P61221) was 0.5106, the “Fold change (treated / control)” value (ABHEB_HUMAN Q96IU4) was 1.254 and the “Fold change (treated / control)” value (ABRAL_HUMAN Q9P1F3) was 1.957. For the same compound, the “Fold change (treated / control)” value (ACAP1_HUMAN Q15027) was 1.421, the “Fold change (treated / control)” value (ACON_HUMAN Q99798) was 0.6906 and the “Fold change (treated / control)” value (ACTBL_HUMAN Q562R1) was 1.3723. The “Fold change (treated / control)” value (ACTB_HUMAN P60709) was 1.585, the “Fold change (treated / control)” value (ACTG_HUMAN P63261) was 1.692 and the “Fold change (treated / control)” value (ACTN4_HUMAN O43707) was 1.276. For the same compound, the “Fold change (treated / control)” value (AGR2_HUMAN O95994) was 3.629, the “Fold change (treated / control)” value (AHDC1_HUMAN Q5TGY3) was 1.829 and the “Fold change (treated / control)” value (AK1C2_HUMAN P52895) was 5.517. For the same compound, the “Fold change (treated / control)” value (AL4A1_HUMAN P30038) was 0.7522, the “Fold change (treated / control)” value (AL9A1_HUMAN P49189) was 1.232 and the “Fold change (treated / control)” value (ALDOA_HUMAN P04075) was 1.319. For the same compound, the “Fold change (treated / control)” value (ALDOC_HUMAN P09972) was 1.376, the “Fold change (treated / control)” value (AN32A_HUMAN P39687) was 1.403 and the “Fold change (treated / control)” value (ANXA2_HUMAN P07355) was 3.158. For the same compound, the “Fold change (treated / control)” value (ANXA4_HUMAN P09525) was 1.211, the “Fold change (treated / control)” value (ANXA5_HUMAN P08758) was 1.264 and the “Fold change (treated / control)” value (ANXA7_HUMAN P20073) was 1.193. The “Fold change (treated / control)” value (AP1B1_HUMAN Q10567) was 0.9203, the “Fold change (treated / control)” value (APMAP_HUMAN Q9HDC9) was 1.936 and the “Fold change (treated / control)” value (APOC3_HUMAN P02656) was 2.01. The “Fold change (treated / control)” value (APOE_HUMAN P02649) was 1.93, the “Fold change (treated / control)” value (ARID2_HUMAN Q68CP9) was 0.5698 and the “Fold change (treated / control)” value (ARP5L_HUMAN Q9BPX5) was 1.173. The “Fold change (treated / control)” value (ARSA_HUMAN P15289) was 1.315, the “Fold change (treated / control)” value (ASAH1_HUMAN Q13510) was 1.91 and the “Fold change (treated / control)” value (ASNA_HUMAN O43681) was 1.156. For the same compound, the “Fold change (treated / control)” value (AT1B1_HUMAN P05026) was 1.129, the “Fold change (treated / control)” value (AT5F1_HUMAN P24539) was 0.4995 and the “Fold change (treated / control)” value (ATAD2_HUMAN Q6PL18) was 0.5339. For the same compound, the “Fold change (treated / control)” value (ATP5I_HUMAN P56385) was 1.217, the “Fold change (treated / control)” value (BABA2_HUMAN Q9NXR7) was 1.187 and the “Fold change (treated / control)” value (BACH_HUMAN O00154) was 1.178. For the same compound, the “Fold change (treated / control)” value (BAZ1B_HUMAN Q9UIG0) was 0.5909, the “Fold change (treated / control)” value (BCLF1_HUMAN Q9NYF8) was 1.362 and the “Fold change (treated / control)” value (BIP_HUMAN P11021) was 1.103. The “Fold change (treated / control)” value (BRD1_HUMAN O95696) was 0.5595, the “Fold change (treated / control)” value (C1TC_HUMAN P11586) was 0.9204 and the “Fold change (treated / control)” value (C10_HUMAN Q99622) was 0.6968. The “Fold change (treated / control)” value (CAB45_HUMAN Q9BRK5) was 0.5255, the “Fold change (treated / control)” value (CALX_HUMAN P27824) was 1.1778 and the “Fold change (treated / control)” value (CATD_HUMAN P07339) was 1.307. For the same compound, the “Fold change (treated / control)” value (CAZA1_HUMAN P52907) was 1.365, the “Fold change (treated / control)” value (CBX3_HUMAN Q13185) was 0.7648 and the “Fold change (treated / control)” value (CBX5_HUMAN P45973) was 0.6078. The “Fold change (treated / control)” value (CCD86_HUMAN Q9H6F5) was 0.6454, the “Fold change (treated / control)” value (CD2AP_HUMAN Q9Y5K6) was 1.736 and the “Fold change (treated / control)” value (CHCH5_HUMAN Q9BSY4) was 0.3153. The “Fold change (treated / control)” value (CHPT1_HUMAN Q8WUD6) was 0.4101, the “Fold change (treated / control)” value (CHTOP_HUMAN Q9Y3Y2) was 0.4309 and the “Fold change (treated / control)” value (CISD1_HUMAN Q9NZ45) was 0.6534. For the same compound, the “Fold change (treated / control)” value (CK054_HUMAN Q9H0W9) was 1.355, the “Fold change (treated / control)” value (CKAP4_HUMAN Q07065) was 1.512 and the “Fold change (treated / control)” value (CLIC1_HUMAN O00299) was 1.368. For the same compound, the “Fold change (treated / control)” value (CLPT1_HUMAN O96005) was 0.5334, the “Fold change (treated / control)” value (CLUS_HUMAN P10909) was 0.6547 and the “Fold change (treated / control)” value (CMTD1_HUMAN Q86VU5) was 0.6695. For the same compound, the “Fold change (treated / control)” value (CNDP2_HUMAN Q96KP4) was 1.166, the “Fold change (treated / control)” value (COA7_HUMAN Q96BR5) was 0.6927 and the “Fold change (treated / control)” value (COASY_HUMAN Q13057) was 0.6716. For the same compound, the “Fold change (treated / control)” value (COF1_HUMAN P23528) was 1.524, the “Fold change (treated / control)” value (COPE_HUMAN O14579) was 1.293 and the “Fold change (treated / control)” value (COPZ1_HUMAN P61923) was 1.267. For the same compound, the “Fold change (treated / control)” value (COR1C_HUMAN Q9ULV4) was 1.273, the “Fold change (treated / control)” value (COX17_HUMAN Q14061) was 0.3991 and the “Fold change (treated / control)” value (CPIN1_HUMAN Q6FI81) was 0.457. The “Fold change (treated / control)” value (CPSF7_HUMAN Q8N684) was 0.5898, the “Fold change (treated / control)” value (CREL2_HUMAN Q6UXH1) was 0.7362 and the “Fold change (treated / control)” value (CSDE1_HUMAN O75534) was 0.3966. For the same compound, the “Fold change (treated / control)” value (CSK2B_HUMAN P67870) was 1.254, the “Fold change (treated / control)” value (CSN5_HUMAN Q92905) was 1.871 and the “Fold change (treated / control)” value (CSN6_HUMAN Q7L5N1) was 1.335. The “Fold change (treated / control)” value (CTNB1_HUMAN P35222) was 0.7244, the “Fold change (treated / control)” value (CTXN1_HUMAN P60606) was 2.673 and the “Fold change (treated / control)” value (CX6B1_HUMAN P14854) was 0.5635. For the same compound, the “Fold change (treated / control)” value (CX7A2_HUMAN P14406) was 1.309, the “Fold change (treated / control)” value (CYB5B_HUMAN O43169) was 1.699 and the “Fold change (treated / control)” value (CYTB_HUMAN P04080) was 1.925. For the same compound, the “Fold change (treated / control)” value (CYTC_HUMAN P01034) was 0.3985, the “Fold change (treated / control)” value (DCAKD_HUMAN Q8WVC6) was 0.4938 and the “Fold change (treated / control)” value (DDB1_HUMAN Q16531) was 0.7393. For the same compound, the “Fold change (treated / control)” value (DDI2_HUMAN Q5TDH0) was 1.4255, the “Fold change (treated / control)” value (DDRGK_HUMAN Q96HY6) was 1.251 and the “Fold change (treated / control)” value (DDX5_HUMAN P17844) was 0.5576. The “Fold change (treated / control)” value (DDX21_HUMAN Q9NR30) was 0.6203, the “Fold change (treated / control)” value (DDX27_HUMAN Q96GQ7) was 0.7632 and the “Fold change (treated / control)” value (DDX50_HUMAN Q9BQ39) was 0.5638. The “Fold change (treated / control)” value (DDX52_HUMAN Q9Y2R4) was 0.5706, the “Fold change (treated / control)” value (DDX56_HUMAN Q9NY93) was 0.5433 and the “Fold change (treated / control)” value (DEK_HUMAN P35659) was 0.84. For the same compound, the “Fold change (treated / control)” value (DESP_HUMAN P15924) was 0.5753 and the “Fold change (treated / control)” value (DEST_HUMAN P60981) was 1.708.
